Values joined by “and” are separate entries in the source; they are usually repeats but may differ in a detail not shown here. Equal entries are not always repeated. The list shows a part of the results. These are further read-outs of the screen, such as a control signal, another cell line or another target. No call is given for them. Compounds called inactive in the main read-out are mostly missing here. The note in brackets gives the kind of curve behind each potency; many fits are weak.
Assay: qHTS Assay for Modulators of Lamin A Splicing
Settings: HeLa LMNA splicing GFP/RFP minigene ratio, 48 h
How it was run: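 S3 HeLa stable clones carrying a lamin A-EGFP splicing minigene plus DsRed2 were seeded at 600 cells/well in Opti-MEM with 2% FBS, pin-dosed and incubated 48 h at 37°C. Acumen cytometry (488 nm) gave the GFP/RFP total-intensity ratio.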

[1] = measured here: RFP viability control channel
[2] = measured here: GFP splicing reporter channel

Structure (SMILES) | AC50 [1] | AC50 [2]
CCc1ccc(CN(C)C(=O)CCc2nnc(CCc3cccc(OC)c3)o2)nc1 | 7.94 µM [falling, full curve, poor fit] | 
CC(=O)OCC1OC(n2cnc3c(Cl)nc(Cl)nc32)C(OC(C)=O)C1OC(C)=O (centres undefined) | 25.1 µM [falling, single point] | 17.8 µM [falling, partial curve]
Cc1cccc(Nc2nc(-c3cccs3)cs2)n1 | 15.8 µM [rising, single point] | 
CCOC(=O)C1(CC2CCCCO2)CCN(C(=O)Nc2ccccc2CC)CC1 (centres undefined) |  | 0.282 µM [rising, partial curve]
Cc1ccc2sc(N3CCN(C(=O)CCS(=O)(=O)c4ccc(Cl)cc4)CC3)nc2c1C | 0.0141 µM [rising, partial curve, poor fit] | 
O=C(NCCc1ccc(F)cc1)C(=O)NCC(c1cccs1)S(=O)(=O)c1ccc(F)cc1 (centres undefined) | 7.08 µM [falling, full curve] | 11.2 µM [falling, partial curve]
Nc1cc(-c2ccccc2)nn1S(=O)(=O)c1ccc(F)cc1 | 14.1 µM [rising, partial curve] | 
Cc1cccc(NC(=S)NNC(=O)c2cc3c(s2)CCC(C)C3)c1C (centres undefined) | 17.8 µM [rising, single point] | 15.8 µM [rising, single point]
Cc1ccnc(N2CCC(C(=O)Nc3ccc4c(c3)CCC4)CC2)n1 | 22.4 µM [rising, single point] | 1.26 µM [rising, partial curve]
CCCN(CCC)C(=O)Cn1c(=O)n(-c2cccc(OC)c2)c(=O)c2c(C)c(C(=O)N(C)C)sc21 | 0.0224 µM [rising, full curve, poor fit] | 
COc1ccc2nc(N3C(=O)/C(=C/c4ccccc4)NC3=S)sc2c1 | 7.08 µM [rising, partial curve] | 7.94 µM [rising, partial curve]
Cc1nc2ccccn2c1/C(O)=C1\C(=O)C(=O)N(CCN(C)C)C1c1cccnc1 (centres undefined) | 1.12 µM [rising, full curve, poor fit] | 
Cc1ccc(C)c(NC(=O)Cn2nnc(C(=O)NCc3ccccc3Cl)c2N)c1 | 35.5 µM [falling, single point] | 
CC1CN(S(=O)(=O)c2ccc(C(=O)Nc3nnc(-c4ccc5c(c4)CCCC5)o3)cc2)CC(C)O1 (centres undefined) | 4.47 µM [rising, partial curve] | 
O=C(Cn1c(=O)nc(-c2ccccc2)c2ccccc21)NCCc1ccc(Cl)cc1 |  | 7.08 µM [falling, partial curve, poor fit]
CC1(C)C=Cc2c(c3c(c4c(=O)c(-c5ccc(O)cc5)coc24)OC(C)(C)CC3)O1 | 28.2 µM [falling, single point] | 35.5 µM [falling, single point]
COc1cccc(N2C(=O)C(CC(=O)Nc3ccccc3)N(C3CCCCC3)C2=O)c1 (centres undefined) |  | 0.398 µM [rising, full curve, poor fit]

Structure (SMILES) | AC50 [1] | AC50 [2]
Brc1ccc(-c2csc(/N=C/N3CCOCC3)n2)cc1 | 15.8 µM [rising, single point] | 
Cc1ccc(S(=O)(=O)Nc2cc(=O)[nH]c(SCc3ccccc3Cl)n2)cc1 | 35.5 µM [rising, single point] | 31.6 µM [rising, single point]
CC(C)(C)n1nnnc1C(c1ccccn1)N(Cc1ccccc1)Cc1ccc(Cl)cc1 (centres undefined) | 31.6 µM [rising, single point] | 
CSc1ccccc1NC(=O)Nc1ccc(Cl)cc1 | 20 µM [rising, single point] | 25.1 µM [rising, single point]
CN(Cc1ccccc1)S(=O)(=O)c1ccc(Cl)c(C(=O)NCCc2ccccn2)c1 | 0.0178 µM [falling, full curve, poor fit] | 25.1 µM [falling, single point]
CCCCN(CC)CCNC(=O)CCn1cnc2onc(-c3ccc(F)cc3)c2c1=O | 2.24 µM [falling, full curve, poor fit] | 6.31 µM [falling, partial curve, poor fit]
Cc1cccc(-n2cc(-c3ccccc3)c3c(N4CCC(C)CC4)ncnc32)c1 | 35.5 µM [rising, single point] | 
Cc1c(Br)c([N+](=O)[O-])nn1CC(=O)N(C)Cc1ccccc1 | 0.0708 µM [falling, full curve, poor fit] | 
O=C(O)CCc1nc(-c2ccccc2)c(-c2ccccc2)o1 | 0.355 µM [falling, single point] | 316 nM [falling, full curve, poor fit] and 3.98 nM [rising, full curve, poor fit]
O=C(CN(CCO)c1ccccc1)Nc1ccc(Cl)c(S(=O)(=O)N2CCOCC2)c1 | 10 µM [rising, partial curve] | 
COc1ccc(C)cc1NC(=O)c1nnn(Cc2cccc(F)c2)c1N | 0.0178 µM [rising, full curve, poor fit] | 0.112 µM [rising, partial curve]
Cc1ccc(N(Cc2ccc([N+](=O)[O-])cc2)C(=O)c2ccco2)cc1C | 12.6 µM [rising, partial curve] | 12.6 µM [rising, partial curve]
Oc1ccc(C=Nc2ccc3ncccc3c2)c(O)c1 | 35.5 µM [falling, partial curve, poor fit] | 35.5 µM [falling, single point]
NC(=O)CSc1nc2cc([N+](=O)[O-])ccc2n1-c1cccc(C(F)(F)F)c1 | 2 µM [rising, single point] | 
Cc1cc(C)cc(N2CCN(C(=O)N3CCOCC3)CC2)c1 | 14.1 µM [falling, single point] | 35.5 µM [falling, single point]
Cc1c([C@@H]2C[C@H]3CN(Cc4cccc(Cl)c4)C(=O)[C@]34CCCN24)cnn1C | 20 µM [rising, single point] | 22.4 µM [rising, single point]

Full records, quoted from the list:
NC(=O)CSc1nc2cc([N+](=O)[O-])ccc2n1-c1cccc(C(F)(F)F)c1 as listed: AC50 [1]: 2 µM [rising, single point]
Cc1nc2ccccn2c1/C(O)=C1\C(=O)C(=O)N(CCN(C)C)C1c1cccnc1 (centres undefined) as listed: AC50 [1]: 1.12 µM [rising, full curve, poor fit]

From PubChem BioAssay AID1487 (National Center for Advancing Translational Sciences (NCATS), 2009)
